According to patent publication US7018457B2, “Azo metal-complexed dyes, ink jet ink compositions and ink jet printing methods” (Polaroid Corporation, priority 2002, dated 2006):

Experiment: Colorimetry of images (Gretag MacBeth SMP-50 densitometer)
Assay type: physicochemical
Settings: Table VII; Epson 870 paper

In the case of `Cc1nn(-c2ccc(S(=O)(=O)[O-])cc2)c2c1N=Nc1ccc(S(=O)(=O)[O-])cc1C(=O)[O][Co][O]2.O.[Na+].[Na+]` [VI], the “L*” value is reported as 88, the “a*” value is reported as −8 and the “b*” value is reported as 81.
